In all, about 44,000 compounds went through this assay and fewer than 10 were called active. The inconclusive results got no clear call from the source; some entries with a clear call stand among them for comparison. Calls come from the whole dose curve; as a rule, active = well fitted curve in the direction sought with a large enough effect; inconclusive = small, poorly fitted or top-dose-only effect, or another doubt; inactive = no such curve, though single readings can be large or run the other way. A potency beside an inconclusive call is a rough fit, not a confirmed value.
Each compound was assayed against Galactokinase (Homo sapiens) (UniProt P51570) (assay: qHTS Assay for Inhibitors of Human Galactokinase (GALK): NCGC Sytravon Library Screen). Conditions: recombinant GALK, Kinase-Glo ATP luminescence, 1 h; series mostly up to 57.5 µM; activity, negative = inhibition: at the top concentration.
How it was run: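 Luminescent ATP-depletion readout (Kinase-Glo Plus, 10 min) after 1 h RT reaction of 5 nM GALK, 35 uM ATP, 100 uM galactose, pH 8.0 HEPES buffer. Decreased kinase activity scored as inhibition.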
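Throughout, for activity, negative = inhibition: plate controls were full GALK reaction for no effect and reaction lacking GALK for full effect.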

Amino acid sequences for entries named in this document (tags omitted). A change or cut given only in a name is not applied to a line headed by its entry.
UniProt P51570: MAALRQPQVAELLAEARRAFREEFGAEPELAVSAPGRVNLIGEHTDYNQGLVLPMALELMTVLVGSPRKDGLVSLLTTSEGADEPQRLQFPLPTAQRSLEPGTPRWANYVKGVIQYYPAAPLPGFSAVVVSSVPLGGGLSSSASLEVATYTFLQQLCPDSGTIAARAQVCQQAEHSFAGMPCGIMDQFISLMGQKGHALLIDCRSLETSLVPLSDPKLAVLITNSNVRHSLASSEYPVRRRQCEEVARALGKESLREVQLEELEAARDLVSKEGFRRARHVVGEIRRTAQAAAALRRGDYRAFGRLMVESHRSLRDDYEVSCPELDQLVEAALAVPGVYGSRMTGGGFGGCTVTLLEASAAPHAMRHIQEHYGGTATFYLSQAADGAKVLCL

| SMILES | Potency | activity, negative = inhibition |
| --- | --- | --- |
| CCC(Cn1nnc2ccccc2c1=O)NC(=O)Nc1cccc(Cl)c1 (configuration not stated) | inconclusive: 39.8 µM [inhibitor, partial curve, poor fit] |  |
| COc1cc(NC(=O)Cn2nc(C(F)(F)F)c3c2CCCC3)cc(OC)c1OC | inconclusive: 39.8 µM [inhibitor, partial curve, poor fit] |  |
| O=C(NCc1ccccc1Cl)c1ccc2nc(Cc3ccccc3)oc2c1 | inconclusive: 44.7 µM [inhibitor, partial curve, poor fit] |  |
| CCCC12CN3CC(C)(CN(C1)C3c1cn(CC)c3ccccc13)C2=O (configuration not stated) | inconclusive: 39.8 µM [inhibitor, partial curve, poor fit] |  |
| COCCCNC(=O)c1sc2nc(C)c(C(=O)Nc3ccc(Cl)cc3)c(-c3ccc(Br)cc3)c2c1N |  | inactive: 0.594% |
| Cc1c(C(=O)N2CCCCCC2)c(S(=O)(=O)Nc2ccc(OC(F)(F)F)cc2)c(C)n1C | inconclusive: 0.251 µM [inhibitor, full curve, poor fit] |  |
| Cc1cccn2c(=O)cc(COc3cccc(NC(=O)COc4ccccc4)c3)nc12 | inconclusive: 15.8 µM [inhibitor, partial curve, poor fit] |  |
| COc1cccc(-c2nc3c(c(SCC(=O)Nc4cc(C)ccc4C)n2)Cc2c(CO)cnc(C)c2O3)c1 | inconclusive: 3.98 µM [inhibitor, full curve, poor fit] |  |
| O=C(CSc1cn(CC(=O)N2CCCC2)c2ccccc12)Nc1ccccc1C(F)(F)F | inconclusive: 1.41 µM [inhibitor, full curve, poor fit] |  |
| O=C(Nc1ccc2nc(SCCOc3ccccc3)sc2c1)c1ccc2c(c1)OCO2 | inconclusive: 1 µM [inhibitor, full curve, poor fit] |  |
| COc1ccc(CNC(=O)c2nc(S(=O)(=O)Cc3ccccc3)ncc2Cl)cc1 |  | inactive: 0% |
| COc1ccc(C(=O)NCC(c2cccnc2)N2CCN(c3ccccc3F)CC2)cc1OC (configuration not stated) | inconclusive: 7.08 µM [inhibitor, partial curve, poor fit] |  |
| CCCc1nn2c(=O)cc(COC(=O)c3ccccc3NC(=O)C3CCCCC3)nc2s1 | inconclusive: 0.178 µM [inhibitor, full curve, poor fit] |  |
| CCc1ccc(NC(=O)CSc2nnc(-c3cc4occc4n3C)n2-c2ccccc2C)cc1 |  | inactive: -4.75% |
| C=CCc1c(C)nc2nc(SCC(=O)Nc3ccc(OCC)cc3)nn2c1C | inconclusive: 0.112 µM [inhibitor, full curve, poor fit] |  |
| CCOC(=O)c1c(-c2ccccc2)oc2ccc(NS(=O)(=O)c3ccc(C(C)C)cc3)cc12 | inconclusive: 0.199 µM [inhibitor, full curve, poor fit] |  |
| O=C(Nc1nnc(S(=O)(=O)N2CCOCC2)s1)c1ccc(F)cc1 | inconclusive: 7.08 µM [inhibitor, partial curve, poor fit] |  |
| COc1ccccc1C1C=C(c2ccc(Cl)cc2)Nc2nc(-c3ccc(Cl)cc3)nn21 (configuration not stated) | inconclusive: 0.158 µM [inhibitor, full curve, poor fit] |  |
| COc1ccc(Cl)cc1N(C)C(=O)C(=O)Nc1ccc2nc3n(c(=O)c2c1)CCCCC3 |  | inactive: -11.7% |

Two of these compounds in another layout.
SMILES | Potency | activity, negative = inhibition
COc1ccc(CNC(=O)c2nc(S(=O)(=O)Cc3ccccc3)ncc2Cl)cc1 |  | inactive: 0%
COc1ccccc1C1C=C(c2ccc(Cl)cc2)Nc2nc(-c3ccc(Cl)cc3)nn21 (configuration not stated) | inconclusive: 0.158 µM [inhibitor, full curve, poor fit] | 

Additional results follow:

| SMILES | Potency | activity, negative = inhibition |
| --- | --- | --- |
| COc1ccc(NC(=O)CSc2nc(-c3ccccc3)nc3c2Cc2c(CO)cnc(C)c2O3)cc1Cl | inconclusive: 2.82 µM [inhibitor, full curve, poor fit] |  |
| CCc1ccc2c(c1)NC(c1ccc(OC)cc1)=NC(c1ccncc1)=N2 | inconclusive: 35.5 µM [inhibitor, partial curve, poor fit] |  |
| CC(Oc1ccccc1F)C(=O)Nc1ccc(-c2nc3ccccc3s2)cc1 (configuration not stated) | inconclusive: 3.16 µM [inhibitor, full curve, poor fit] |  |
| CCCCOc1ccc(Cn2c(=O)sc3ccccc32)cc1 | inconclusive: 39.8 µM [inhibitor, partial curve, poor fit] |  |
| O=C(Nc1ccc(S(=O)(=O)N2CCCCCC2)cc1)c1cc(=O)c2ccccc2o1 | inconclusive: 10 µM [inhibitor, partial curve, poor fit] |  |
| CCc1ccc(NC(=O)Cn2c(-c3cncs3)nc3ccccc32)cc1 | inconclusive: 39.8 µM [inhibitor, partial curve, poor fit] |  |
| O=C(O)CSc1c2c(nc3cc(C(=O)Nc4ccc(F)c(Cl)c4)ccc13)CCC2 | inconclusive: 28.2 µM [inhibitor, partial curve, poor fit] |  |
| CCOc1ccc(-n2c(CCC(=O)O)ccc2-c2ccc(Br)cc2)cc1 | inconclusive: 0.708 µM [inhibitor, full curve, poor fit] |  |
| O=C(NCc1ccccc1Cl)c1ccc2c(O)c(S(=O)(=O)c3ccccc3)c(=O)[nH]c2c1 | inconclusive: 15.8 µM [inhibitor, partial curve, poor fit] |  |
| Cc1ccc(C(=O)NCC(c2cccnc2)N2CCc3ccccc32)cc1C (configuration not stated) | inconclusive: 7.08 µM [inhibitor, partial curve, poor fit] |  |
| COc1ccc(Cn2c(=O)c3oc4ccccc4c3n(Cc3cccc(C)c3)c2=O)cc1 | inconclusive: 1 µM [inhibitor, full curve, poor fit] |  |
| Cc1cc(Nc2ccc(Cl)cc2C)nc(-n2nc(C)cc2C)n1 | inconclusive: 4.47 µM [inhibitor, full curve, poor fit] |  |
| COc1ccc(-c2nc3c4ccccc4n(CC(=O)N4CCN(c5ccc(F)cc5)CC4)c(=O)n3n2)cc1 |  | inactive: 6.95% |
| CCOc1ccccc1NC(=O)Cn1c(=O)n(-c2ccc(Cl)cc2)c(=O)c2oc3ccccc3c21 | inconclusive: 1.78 µM [inhibitor, partial curve, poor fit] |  |
| COCCn1c(SCc2ccccc2F)nc2c([nH]c3ccccc32)c1=O | inconclusive: 28.2 µM [inhibitor, partial curve, poor fit] |  |
| Cc1ccccc1OCC(=O)Nc1ccccc1C(=O)OCc1cc(=O)n2c(C)csc2n1 |  | inactive: -2.4% |
| CCCCN(CC)CCNC(=O)Cn1c(=O)c2cccn2c2cccnc21 | inconclusive: 4.47 µM [inhibitor, partial curve, poor fit] |  |
| Cc1ccc(NC(=O)CCC(=O)N2CCOc3ccccc32)c(Cl)c1 | inconclusive: 2.24 µM [inhibitor, partial curve, poor fit] |  |
| COc1ccc(C(=O)Nc2nnc(S(=O)(=O)N(C)c3ccc(Cl)cc3)s2)cc1OC | inconclusive: 6.31 µM [inhibitor, partial curve, poor fit] |  |

Entries listed so far that contain an aryl methoxy group, in the order listed:

| SMILES | Potency | activity, negative = inhibition |
| --- | --- | --- |
| COc1cc(NC(=O)Cn2nc(C(F)(F)F)c3c2CCCC3)cc(OC)c1OC | inconclusive: 39.8 µM [inhibitor, partial curve, poor fit] |  |
| COc1cccc(-c2nc3c(c(SCC(=O)Nc4cc(C)ccc4C)n2)Cc2c(CO)cnc(C)c2O3)c1 | inconclusive: 3.98 µM [inhibitor, full curve, poor fit] |  |
| COc1ccc(CNC(=O)c2nc(S(=O)(=O)Cc3ccccc3)ncc2Cl)cc1 |  | inactive: 0% |
| COc1ccc(C(=O)NCC(c2cccnc2)N2CCN(c3ccccc3F)CC2)cc1OC (configuration not stated) | inconclusive: 7.08 µM [inhibitor, partial curve, poor fit] |  |
| COc1ccccc1C1C=C(c2ccc(Cl)cc2)Nc2nc(-c3ccc(Cl)cc3)nn21 (configuration not stated) | inconclusive: 0.158 µM [inhibitor, full curve, poor fit] |  |
| COc1ccc(Cl)cc1N(C)C(=O)C(=O)Nc1ccc2nc3n(c(=O)c2c1)CCCCC3 |  | inactive: -11.7% |
| COc1ccc(NC(=O)CSc2nc(-c3ccccc3)nc3c2Cc2c(CO)cnc(C)c2O3)cc1Cl | inconclusive: 2.82 µM [inhibitor, full curve, poor fit] |  |
| CCc1ccc2c(c1)NC(c1ccc(OC)cc1)=NC(c1ccncc1)=N2 | inconclusive: 35.5 µM [inhibitor, partial curve, poor fit] |  |
| COc1ccc(Cn2c(=O)c3oc4ccccc4c3n(Cc3cccc(C)c3)c2=O)cc1 | inconclusive: 1 µM [inhibitor, full curve, poor fit] |  |
| COc1ccc(-c2nc3c4ccccc4n(CC(=O)N4CCN(c5ccc(F)cc5)CC4)c(=O)n3n2)cc1 |  | inactive: 6.95% |
| COc1ccc(C(=O)Nc2nnc(S(=O)(=O)N(C)c3ccc(Cl)cc3)s2)cc1OC | inconclusive: 6.31 µM [inhibitor, partial curve, poor fit] |  |

Next part

| SMILES | Potency | activity, negative = inhibition |
| --- | --- | --- |
| COc1ccc(-c2[nH]nc3nc(-c4cc(OC)c(OC)c(OC)c4)cc(C(=O)O)c23)cc1 | inconclusive: 0.158 µM [inhibitor, full curve, poor fit] |  |
| COc1ccc(NC(=O)C(=O)NCCc2ccc(OC)c(OC)c2)c(OC)c1 | inconclusive: 11.2 µM [inhibitor, partial curve, poor fit] |  |
| COc1cccc(NC(=O)C2CCCN(c3nnc(-n4c(C)ccc4C)s3)C2)c1 (configuration not stated) | inconclusive: 17.8 µM [inhibitor, partial curve, poor fit] |  |
| CCOc1ccc(NC(=O)Cn2c(=O)cc(C)c3c(C)nn(-c4cccc(Cl)c4C)c32)cc1 | inconclusive: 0.794 µM [inhibitor, full curve, poor fit] |  |
| Oc1ccc(NCc2ccc(OCc3ccccc3Cl)cc2)cc1 | inconclusive: 20 µM [inhibitor, partial curve, poor fit] |  |
| COc1ccc(NC(=O)CSc2nc3c(c(=O)[nH]2)CN(Cc2ccccc2)CC3)cc1Cl | inconclusive: 1.12 µM [inhibitor, full curve, poor fit] |  |
| COc1ccc2oc(-c3ccc(C)c(NC(=O)c4ccc(N5CCCCC5)c([N+](=O)[O-])c4)c3)nc2c1 | inconclusive: 7.08 µM [inhibitor, partial curve, poor fit] |  |
| CCCCNC(=O)c1ccc(-c2nc(CS(=O)(=O)c3ccc(C)cc3)c(C)o2)cc1 |  | inactive: -0.153% |
| COc1ccc2c(c1)c(N1CCCC1=O)c(C(=O)Nc1ccc(Cl)cc1C)n2C | inconclusive: 0.794 µM [inhibitor, full curve, poor fit] |  |
| COc1ccc(C(=O)NCC(c2cccnc2)N2CCN(c3ccc(F)cc3)CC2)cc1 (configuration not stated) | inconclusive: 7.08 µM [inhibitor, partial curve, poor fit] |  |
| CC1CCN(C(=O)CSc2c3c(nc4cc(Cl)ccc24)CCCC3)CC1 | inconclusive: 1.78 µM [inhibitor, partial curve, poor fit] |  |
| Cc1ccc(C)c(-n2nnc(-c3nc(-c4ccc(Cl)cc4)no3)c2N)c1 | inconclusive: 22.4 µM [inhibitor, partial curve, poor fit] |  |
| CCN(CC)c1cc(C)nc2nc(-c3ccc(C)cc3)nn12 | inconclusive: 39.8 µM [inhibitor, partial curve, poor fit] |  |
| Cc1cccc(NC(=O)Cn2c(=O)oc3cc(S(=O)(=O)NCc4ccccc4)ccc32)c1 |  | inactive: -0.889% |
| Cc1ccc(C)c(S(=O)(=O)c2cnc(SCC(=O)Nc3ccc(F)cc3F)[nH]c2=O)c1 | inconclusive: 1.41 µM [inhibitor, partial curve, poor fit] |  |
| O=C(Nc1cccc(Cl)c1)c1cc(-c2ccccc2)on1 |  | inactive: 1.63% |
| CC(=O)Nc1cc(-c2ccccc2)nn1Cc1cccc(Cl)c1 |  | inactive: 0% |
| CC(C)(C)c1ccc(C(=O)Nc2ccc(OCc3cc(=O)n4ccsc4n3)cc2)cc1 |  | inactive: 6.54% |
| COCCc1nn2c(=O)cc(COC(=O)c3ccco3)nc2s1 | inconclusive: 3.55 µM [inhibitor, full curve, poor fit] |  |
